# Source: paper PMC3374801, “Artemisinin Inhibits Chloroplast Electron Transport Activity: Mode of Action” (PLoS ONE, 2012)
# Test system: rice leaves
# Assay: Fast Chl. a (O-J-I-P) fluorescence transient in leaves of artemisinin sprayed plants
# Format: in vivo, Rice (Oryza sativa var. Safari)
# Details: leaves of sprayed rice plants (~1.86 µmol/plant); dark adapted
# Protocol: Twenty one day old rice plants were sprayed with artemisinin twice at a 24 h interval. One mililiter of 74.4 mM artemisinin in 1% (V/V) DMSO, 0.1% (V/V) TWEEN-20 was diluted 100 fold with water and used to treat 40 plants (∼1.86 µmol of artemisinin/plant). Control plants were sprayed with the same solution without artemisinin. The 4th (quaternary) leaf was harvested 20 h after the 2nd spray and used for all experiments. The individual effect of the surfactant and DMSO-plus-surfactant was first evaluated against water control. Since no effect was obtained with these variations, we have routinely used the DMSO plus the surfactant sprayed leaves as control against artemisinin treated leaves and in figures the same has been depicted as DMSO (control). The room temperature Chl. a fluorescence technique was used to study the photosynthetic activity in intact leaf samples. The fast Chl. a transients (O-J-I-P) in millisecond (ms) time span was studied with plant efficiency analyzer (Handy PEA fluorimeter) following Strasser et al., while the relative thylakoid electron transport, membrane energization and carbon fixation activities were evaluated from slow fluorescence transients, obtained using FMS2 instrument (Hansatech) as per the detail outlined in Baker. The readouts from Handy PEA were analyzed using biolyzerhp3 software.
compound,measurement,value
C[C@@H]1CC[C@H]2[C@@H](C)C(=O)O[C@@H]3O[C@@]4(C)CC[C@@H]1[C@]32OO4 [Artemisinin],FO (Chl. a fluorescence),368±11
same,Fm (Chl. a fluorescence),1757±19
